Source: paper PMC7602984
Results are given in words; binding and its absence hold for the method and conditions named. Binding seen in cells or lysates may run through a third protein. Some entries that bind do so weakly or less than the wild type.

Amino acid sequences for entries named in this document (tags omitted).
UniProt P17302: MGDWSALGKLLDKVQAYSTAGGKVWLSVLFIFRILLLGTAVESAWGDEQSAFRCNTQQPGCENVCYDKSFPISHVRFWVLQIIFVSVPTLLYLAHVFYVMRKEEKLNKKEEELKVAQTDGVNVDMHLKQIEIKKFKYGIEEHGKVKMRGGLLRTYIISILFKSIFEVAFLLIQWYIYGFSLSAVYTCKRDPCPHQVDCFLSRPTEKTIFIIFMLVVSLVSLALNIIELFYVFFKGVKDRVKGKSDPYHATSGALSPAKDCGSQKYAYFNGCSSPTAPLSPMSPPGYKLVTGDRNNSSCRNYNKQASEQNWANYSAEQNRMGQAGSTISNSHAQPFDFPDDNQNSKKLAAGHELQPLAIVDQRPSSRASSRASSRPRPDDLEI
UniProt Q14247: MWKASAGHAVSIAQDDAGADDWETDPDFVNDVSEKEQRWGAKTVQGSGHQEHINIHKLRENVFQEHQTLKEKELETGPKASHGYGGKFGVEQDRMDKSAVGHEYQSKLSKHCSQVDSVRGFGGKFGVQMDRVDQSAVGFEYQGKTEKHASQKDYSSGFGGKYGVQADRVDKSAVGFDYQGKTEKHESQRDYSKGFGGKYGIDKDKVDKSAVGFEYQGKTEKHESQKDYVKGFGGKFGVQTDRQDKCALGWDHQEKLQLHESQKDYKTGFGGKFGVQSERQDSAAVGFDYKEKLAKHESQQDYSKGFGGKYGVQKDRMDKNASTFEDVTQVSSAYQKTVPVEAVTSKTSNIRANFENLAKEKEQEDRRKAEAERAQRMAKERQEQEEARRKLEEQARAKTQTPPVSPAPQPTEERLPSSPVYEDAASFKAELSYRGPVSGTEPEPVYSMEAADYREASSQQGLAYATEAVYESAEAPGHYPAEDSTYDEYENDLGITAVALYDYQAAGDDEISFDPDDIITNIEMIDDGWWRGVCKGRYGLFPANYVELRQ

Target: connexin43 (Cx43), full-length human, stably overexpressed in LNCaP cells (human) (UniProt P17302)
Assay: co-IP; 500 ug RIPA lysate of LNCaP Cx43 cells, 17 h with or without ObCM; immunoprecipitation with rabbit polyclonal anti-Cterm Cx43 (irrelevant rabbit antibody as isotype control), protein A/G-sepharose beads, 2 h at 4 °C; blot for cortactin

binding: binds
Substance: cortactin (from UniProt Q14247 1-550)
